Source: US20100331240A1
No constants are given. Whether binding was seen depends on the method and setting. Some entries that bind do so weakly or less than the wild type.

By UniProt entry, the sequences of proteins in these tests, tags left out. Where a name states a change or a piece, a line headed by the entry shows the natural chain unless it says otherwise.
UniProt P11226: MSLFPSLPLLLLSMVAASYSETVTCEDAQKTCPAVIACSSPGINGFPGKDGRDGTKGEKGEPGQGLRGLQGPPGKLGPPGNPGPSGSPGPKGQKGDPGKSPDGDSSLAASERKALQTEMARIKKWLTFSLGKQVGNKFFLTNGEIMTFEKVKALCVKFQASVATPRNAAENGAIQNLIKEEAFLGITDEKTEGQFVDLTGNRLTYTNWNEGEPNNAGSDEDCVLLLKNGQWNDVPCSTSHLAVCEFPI

Target: biotinylated human placental calreticulin (human) (UniProt P27797)
Assay: ELISA: plate coated with lectin 10 ug/mL, biotinylated calreticulin 5 ug/mL, O.D. 405

## recombinant human mannose-binding lectin (rhMBL) (from UniProt P11226 21-248)
  binding: binds
